Melanoma cell counts after drug treatment

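Human melanoma cells were exposed to a pair of drugs for 72 h in 1,536-well plates and read by automated microscopy after fixing and staining. The read-out is cell count (nuclei) in % of the DMSO control; lower values mean stronger growth inhibition or killing. Concentrations were fixed for each drug; these are the lower of two levels, a fifth of the higher. No replicate spread is given; individual values may be noisy.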
This is part of the screen, not chosen by result.
An entry leaves out what has no value listed here.

Drug key:
bexarotene, 2 µM: C=C(c1ccc(C(=O)O)cc1)c1cc2c(cc1C)C(C)(C)CCC2(C)C
JZL184, 1 µM: O=C(Oc1ccc([N+](=O)[O-])cc1)N1CCC(C(O)(c2ccc3c(c2)OCO3)c2ccc3c(c2)OCO3)CC1
NVP-TAE684, 0.08 µM: COc1cc(N2CCC(N3CCN(C)CC3)CC2)ccc1Nc1ncc(Cl)c(Nc2ccccc2S(=O)(=O)C(C)C)n1
indole-3-carbinol, 0.8 µM: OCc1c[nH]c2ccccc12
OSU-03012, 1 µM: NCC(=O)Nc1ccc(-n2nc(C(F)(F)F)cc2-c2ccc3c(ccc4ccccc43)c2)cc1
ENMD-2076, 0.04 µM: Cc1cc(Nc2cc(N3CCN(C)CC3)nc(/C=C/c3ccccc3)n2)n[nH]1
dorsomorphin, 0.4 µM: c1cc(-c2cnn3cc(-c4ccc(OCCN5CCCCC5)cc4)cnc23)ccn1
GW2580, 1 µM: COc1ccc(COc2ccc(Cc3cnc(N)nc3N)cc2OC)cc1
PF-04217903, 1 µM: OCCn1cc(-c2cnc3nnn(Cc4ccc5ncccc5c4)c3n2)cn1
BMS-536924, 0.2 µM: Cc1cc(N2CCOCC2)cc2[nH]c(-c3c(NC[C@@H](O)c4cccc(Cl)c4)cc[nH]c3=O)nc12
GW0742, 2 µM: Cc1cc(SCc2sc(-c3ccc(C(F)(F)F)c(F)c3)nc2C)ccc1OCC(=O)O
OSI-906, 0.4 µM: C[C@]1(O)C[C@@H](c2nc(-c3ccc4ccc(-c5ccccc5)nc4c3)c3c(N)nccn32)C1
CP-690550, 1 µM: C[C@@H]1CCN(C(=O)CC#N)C[C@@H]1N(C)c1ncnc2[nH]ccc12
CHIR-265, 0.08 µM: Cn1c(Nc2ccc(C(F)(F)F)cc2)nc2cc(Oc3ccnc(-c4ncc(C(F)(F)F)[nH]4)c3)ccc21
veliparib, 1.4 µM: C[C@]1(c2nc3c(C(N)=O)cccc3[nH]2)CCCN1
tozasertib, 0.006 µM: Cc1cc(Nc2cc(N3CCN(C)CC3)nc(Sc3ccc(NC(=O)C4CC4)cc3)n2)n[nH]1
cediranib, 0.4 µM: COc1cc2c(Oc3ccc4[nH]c(C)cc4c3F)ncnc2cc1OCCCN1CCCC1
tanespimycin, 0.002 µM: C=CCNC1=C2C[C@@H](C)C[C@H](OC)[C@H](O)[C@@H](C)/C=C(\C)[C@H](OC(N)=O)[C@@H](OC)/C=C\C=C(/C)C(=O)NC(=CC1=O)C2=O
bortezomib, 0.001 µM: CC(C)C[C@H](NC(=O)[C@H](Cc1ccccc1)NC(=O)c1cnccn1)B(O)O
PD173074, 0.1 µM: CCN(CC)CCCCNc1ncc2cc(-c3cc(OC)cc(OC)c3)c(NC(=O)NC(C)(C)C)nc2n1

For CP-690550 and dorsomorphin the values were A2058: 104; C32: 120; COLO 800: 126. cediranib and GW2580 gave A2058: 97.0; C32: 85.2; COLO 800: 120. With bortezomib and tanespimycin the screen read A2058: 86.4; C32: 47.6; COLO 800: 68.9. tozasertib and bexarotene gave A2058: 90.7; C32: 89.5; COLO 800: 74.2.

Results for OSI-906 and tanespimycin are A2058: 86.4; C32: 105; COLO 800: 62.8. ENMD-2076 and indole-3-carbinol gave A2058: 102; C32: 95.6; COLO 800: 142. Results for GW0742 and JZL184 are A2058: 103; C32: 93.1; COLO 800: 73.4. veliparib and NVP-TAE684 gave A2058: 67.7; C32: 80.9; COLO 800: 130.

Results for bexarotene and veliparib are A2058: 82.3; C32: 101; COLO 800: 110. For GW2580 and ENMD-2076 the values were A2058: 102; C32: 85.3; COLO 800: 94.8. For OSU-03012 and GW2580 the values were C32: 109; COLO 800: 111. With JZL184 and tozasertib the screen read A2058: 93.7; C32: 105; COLO 800: 79.2.

NVP-TAE684 and OSU-03012 gave A2058: 85.9; C32: 77.2; COLO 800: 91.0. For cediranib and NVP-TAE684 the values were A2058: 92.1; C32: 93.3; COLO 800: 102. With NVP-TAE684 and CHIR-265 the screen read A2058: 82.9; C32: 82.2; COLO 800: 78.4. With GW0742 and PF-04217903 the screen read A2058: 111; C32: 94.0; COLO 800: 89.8.

Results for PD173074 and BMS-536924 are A2058: 101; C32: 83.5; COLO 800: 39.3. For dorsomorphin and BMS-536924 the values were A2058: 103; C32: 81.6; COLO 800: 61.5.

The last 2 entries again:

Pair,A2058,C32,COLO 800
PD173074 and BMS-536924,101,83.5,39.3
dorsomorphin and BMS-536924,103,81.6,61.5

Data from the primary screen of doi:10.1371/journal.pone.0140310, rounded.